Reference: paper PMC3885651
No constants are given. Whether binding was seen depends on the method and setting. In cells and extracts the contact can be indirect. These calls come from enrichment with a bait or labelling near it, and not all partners need be listed. Tags and fused reporters may be left off the sequences shown.

The chains behind the UniProt entries cited, without tags or fusion partners. Where a name states a change or a piece, a line headed by the entry shows the natural chain unless it says otherwise.
UniProt Q9SV55: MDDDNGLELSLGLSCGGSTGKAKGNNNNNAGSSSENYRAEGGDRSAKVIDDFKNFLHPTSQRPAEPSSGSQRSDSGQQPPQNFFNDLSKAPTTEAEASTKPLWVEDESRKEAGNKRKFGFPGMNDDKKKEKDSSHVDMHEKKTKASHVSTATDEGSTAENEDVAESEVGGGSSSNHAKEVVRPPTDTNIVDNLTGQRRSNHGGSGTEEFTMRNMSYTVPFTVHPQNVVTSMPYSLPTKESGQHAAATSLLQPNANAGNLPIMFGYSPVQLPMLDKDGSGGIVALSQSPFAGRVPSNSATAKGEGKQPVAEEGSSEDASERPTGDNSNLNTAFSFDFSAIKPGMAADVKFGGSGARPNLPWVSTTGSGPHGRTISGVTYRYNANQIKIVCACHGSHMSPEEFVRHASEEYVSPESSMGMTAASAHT
UniProt Q0WNJ6: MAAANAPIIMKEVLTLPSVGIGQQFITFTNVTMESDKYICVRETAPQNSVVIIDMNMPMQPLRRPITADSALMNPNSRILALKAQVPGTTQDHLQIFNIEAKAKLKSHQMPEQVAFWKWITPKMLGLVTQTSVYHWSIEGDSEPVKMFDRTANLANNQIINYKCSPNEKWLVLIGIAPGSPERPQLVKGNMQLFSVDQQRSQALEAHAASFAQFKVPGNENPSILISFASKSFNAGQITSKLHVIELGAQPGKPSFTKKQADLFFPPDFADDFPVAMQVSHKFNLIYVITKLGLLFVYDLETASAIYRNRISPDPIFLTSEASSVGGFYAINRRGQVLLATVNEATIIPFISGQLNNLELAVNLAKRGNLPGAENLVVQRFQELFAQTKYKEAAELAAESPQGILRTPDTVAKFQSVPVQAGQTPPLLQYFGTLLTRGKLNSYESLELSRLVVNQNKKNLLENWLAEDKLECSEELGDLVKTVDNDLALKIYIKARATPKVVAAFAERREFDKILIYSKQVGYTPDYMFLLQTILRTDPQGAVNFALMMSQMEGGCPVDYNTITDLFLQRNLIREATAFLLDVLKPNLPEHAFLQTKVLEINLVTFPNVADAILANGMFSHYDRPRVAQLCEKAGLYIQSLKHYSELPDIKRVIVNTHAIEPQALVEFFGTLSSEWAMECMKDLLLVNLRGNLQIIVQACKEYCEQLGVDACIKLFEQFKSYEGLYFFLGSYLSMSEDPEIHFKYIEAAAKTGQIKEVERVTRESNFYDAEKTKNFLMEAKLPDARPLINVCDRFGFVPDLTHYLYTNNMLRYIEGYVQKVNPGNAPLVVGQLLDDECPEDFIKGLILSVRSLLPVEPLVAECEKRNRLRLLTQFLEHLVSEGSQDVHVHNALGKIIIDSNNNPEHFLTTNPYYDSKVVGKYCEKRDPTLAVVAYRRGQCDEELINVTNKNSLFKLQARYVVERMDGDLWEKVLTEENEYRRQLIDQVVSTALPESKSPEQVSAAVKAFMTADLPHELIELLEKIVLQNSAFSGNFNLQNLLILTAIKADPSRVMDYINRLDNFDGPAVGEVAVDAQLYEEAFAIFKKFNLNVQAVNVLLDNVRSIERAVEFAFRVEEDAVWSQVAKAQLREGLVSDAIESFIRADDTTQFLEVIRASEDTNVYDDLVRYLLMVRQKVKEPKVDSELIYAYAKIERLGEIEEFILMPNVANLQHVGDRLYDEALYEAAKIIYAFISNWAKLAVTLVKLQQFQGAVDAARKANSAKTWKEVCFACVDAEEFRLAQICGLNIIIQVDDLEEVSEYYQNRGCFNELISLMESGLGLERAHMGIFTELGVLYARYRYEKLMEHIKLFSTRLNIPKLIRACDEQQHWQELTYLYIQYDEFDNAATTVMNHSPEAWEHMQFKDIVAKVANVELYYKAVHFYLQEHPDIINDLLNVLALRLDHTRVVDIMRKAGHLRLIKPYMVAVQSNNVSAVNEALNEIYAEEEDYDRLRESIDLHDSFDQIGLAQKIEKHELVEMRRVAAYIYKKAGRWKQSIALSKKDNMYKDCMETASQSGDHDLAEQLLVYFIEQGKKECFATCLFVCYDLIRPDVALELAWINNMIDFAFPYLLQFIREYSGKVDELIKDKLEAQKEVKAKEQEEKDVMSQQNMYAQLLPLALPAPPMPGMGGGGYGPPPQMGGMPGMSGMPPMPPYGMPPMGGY
UniProt Q8GY55: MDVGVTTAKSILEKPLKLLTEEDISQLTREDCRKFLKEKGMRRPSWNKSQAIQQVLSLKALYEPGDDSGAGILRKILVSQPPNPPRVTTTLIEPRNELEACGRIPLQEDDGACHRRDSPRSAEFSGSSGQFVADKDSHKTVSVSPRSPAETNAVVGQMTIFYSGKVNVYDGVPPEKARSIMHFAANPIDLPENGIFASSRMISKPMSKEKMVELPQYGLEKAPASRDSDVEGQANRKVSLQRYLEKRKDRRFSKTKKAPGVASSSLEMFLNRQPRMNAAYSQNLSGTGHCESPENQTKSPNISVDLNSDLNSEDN
UniProt Q07100: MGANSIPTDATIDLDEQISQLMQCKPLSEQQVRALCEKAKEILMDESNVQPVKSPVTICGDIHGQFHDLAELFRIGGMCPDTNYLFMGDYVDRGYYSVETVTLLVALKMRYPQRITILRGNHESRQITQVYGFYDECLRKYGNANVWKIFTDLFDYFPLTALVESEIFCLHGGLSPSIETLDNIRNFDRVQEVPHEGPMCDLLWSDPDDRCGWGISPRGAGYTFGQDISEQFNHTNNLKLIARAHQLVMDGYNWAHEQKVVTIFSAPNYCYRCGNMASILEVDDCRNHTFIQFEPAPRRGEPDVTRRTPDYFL

T1: GS-tagged TIFY8 (TIFY8-GS) (Arabidopsis thaliana) (UniProt Q84MB2)
T1 sequence: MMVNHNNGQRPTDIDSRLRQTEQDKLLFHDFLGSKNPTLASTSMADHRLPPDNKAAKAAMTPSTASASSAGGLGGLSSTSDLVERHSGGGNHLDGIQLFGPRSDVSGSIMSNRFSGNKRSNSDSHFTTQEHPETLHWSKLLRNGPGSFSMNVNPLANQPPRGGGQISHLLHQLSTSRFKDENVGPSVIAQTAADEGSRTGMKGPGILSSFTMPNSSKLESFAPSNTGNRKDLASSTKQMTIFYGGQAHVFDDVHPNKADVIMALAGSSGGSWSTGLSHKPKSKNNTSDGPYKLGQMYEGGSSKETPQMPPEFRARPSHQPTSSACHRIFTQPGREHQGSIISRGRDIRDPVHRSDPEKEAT

B1: ATB alpha (protein, UniProt Q38821 1-513)
chain: MNGGDEVVAASADPSLPLEWRFSQVFGERSAGEEVQEVDIISAIEFDNSGNHLATGDRGGRVVLFERTDTNNSSGTRRELEEADYPLRHPEFRYKTEFQSHDPEFDYLKSLEIEEKINKIRWCQTANGALFLLSTNDKTIKFWKVQDKKIKKICDMNSDPSRTVGNGTVASSSNSNITNSCLVNGGVSEVNNSLCNDFSLPAGGISSLRLPVVVTSHESSPVARCRRVYAHAHDYHINSISNNSDGETFISADDLRINLWNLEISNQSFNIVDVKPAKMEDLSEVITSAEFHPTHCNMLAYSSSKGSIRLIDLRQSALCDSHSKLFEEPEQAGPKSFFTEIIASVSDIKFAKEGRYLLSRDYMTLKLWDINMDAGPVATFQVHEYLKPKLCDLYENDSIFDKFECCISGNGLRAATGSYSNLFRVFGVAPGSTETATLEASRNPMRRHVPIPSRPSRALSSITRVVSRGSESPGVDGNTNALDYTTKLLHLAWHPNENSIACAAANSLYMYYA
B2: PROTEIN PHOSPHATASE2A PP2A-4 (AT3G25800) (protein, UniProt Q38950 1-587)
chain: MSMIDEPLYPIAVLIDELKNDDIQLRLNSIRRLSTIARALGEERTRKELIPFLSENNDDDDEVLLAMAEELGVFIPYVGGVEYAHVLLPPLETLSTVEETCVREKAVESLCRVGSQMRESDLVDHFISLVKRLAAGEWFTARVSACGVFHIAYPSAPDMLKTELRSLYTQLCQDDMPMVRRAAATNLGKFAATVESAHLKTDVMSMFEDLTQDDQDSVRLLAVEGCAALGKLLEPQDCVQHILPVIVNFSQDKSWRVRYMVANQLYELCEAVGPEPTRTELVPAYVRLLRDNEAEVRIAAAGKVTKFCRILNPEIAIQHILPCVKELSSDSSQHVRSALASVIMGMAPVLGKDATIEHLLPIFLSLLKDEFPDVRLNIISKLDQVNQVIGIDLLSQSLLPAIVELAEDRHWRVRLAIIEYIPLLASQLGVGFFDDKLGALCMQWLQDKVHSIRDAAANNLKRLAEEFGPEWAMQHIVPQVLEMVNNPHYLYRMTILRAVSLLAPVMGSEITCSKLLPVVMTASKDRVPNIKFNVAKVLQSLIPIVDQSVVEKTIRPGLVELSEDPDVDVRFFANQALQSIDNVMMSS
B3: SPINDLY (SPY) (enzyme, UniProt Q96301 1-914)
chain: MVGLEDDTERERSPVVENGFSNGSRSSSSSAGVLSPSRKVTQGNDTLSYANILRARNKFADALALYEAMLEKDSKNVEAHIGKGICLQTQNKGNLAFDCFSEAIRLDPHNACALTHCGILHKEEGRLVEAAESYQKALMADASYKPAAECLAIVLTDLGTSLKLAGNTQEGIQKYYEALKIDPHYAPAYYNLGVVYSEMMQYDNALSCYEKAALERPMYAEAYCNMGVIYKNRGDLEMAITCYERCLAVSPNFEIAKNNMAIALTDLGTKVKLEGDVTQGVAYYKKALYYNWHYADAMYNLGVAYGEMLKFDMAIVFYELAFHFNPHCAEACNNLGVLYKDRDNLDKAVECYQMALSIKPNFAQSLNNLGVVYTVQGKMDAAASMIEKAILANPTYAEAFNNLGVLYRDAGNITMAIDAYEECLKIDPDSRNAGQNRLLAMNYINEGLDDKLFEAHRDWGWRFTRLHPQYTSWDNLKDPERPITIGYISPDFFTHSVSYFIEAPLTHHDYTKYKVVVYSAVVKADAKTYRFRDKVLKKGGVWKDIYGIDEKKIASMVREDKIDILVELTGHTANNKLGTMACRPAPVQVTWIGYPNTTGLPTVDYRITDSLADPPDTKQKQVEELVRLPDCFLCYTPSPEAGPVCPTPALSNGFVTFGSFNNLAKITPKVLQVWARILCAVPNSRLVVKCKPFCCDSIRQRFLTTLEQLGLESKRVDLLPLILFNHDHMQAYSLMDISLDTFPYAGTTTTCESLYMGVPCVTMAGSVHAHNVGVSLLTKVGLGHLVAKNEDEYVQLSVDLASDVTALSKLRMSLRDLMAGSPVCNGPSFAVGLESAYRNMWKKYCKGEVPSLRRMEMLQKEVHDDPLISKDLGPSRVSVTGEATPSLKANGSAPVPSSLPTQSPQLSKRMDSTS
B4: TITANIA2 (TTA2) (protein, UniProt Q84TI3 1-1162)
chain: MKRLRSSDDLDFCNDKNVDGEPPNSDRPASSSHRGFFSGNNRDRGEDAAGFSRAFSRRRSNRDLDNHRPDARYHRSESACFSRRAFPKGFRSERERPNRDASVSSWRRFGGPGNDFGVDDRDRRLRDAERDRSLKSPSWSRDSPNELSKFKPLDSRNSRSRSKSLASPTWSKDSGSEQSKSVGNVVKKSEEEVQGKSSTTSSEMEEGELEPEPQPETASGLAHQTKHDCKLPSCSADDHKNARIDRSFQEIGKSAQLDANTESNRELSHVGGNREMETTDSMTDKKSVEDAENVPEHATESMHVSQNNVNDTSTALAIEHDHRDGTITASANKITDTVDEKGDKDEDYKENLHGVKLEETLYPDVPERLEELKEVKGNDGDANKAEVEGPECVEENALANRTPAEYISSVSDSSVHKCKDKGKNSDVPLTHLVGNALFSESKTEDLHDKDKDEKDDNFGGPSIRGFELFSSSPVRRAKKTEQSGVNKHKDEKLLLEPLDLSLSLPDVLLPIGGQDTNQLGSPVRSGSVRSLTDTFCTNSDGFTMSMSFSGSRSFNHNPSCSLSHNIGDNEQSVHSRPIFQGIDWQALSHNDSKYNENTVYQRLMENGNGSVQPRAMKGNLISGQADEEHLRLPDGSSKAANILEKQLSFQKSVDVRSACPRTGSLENGSKFTVEKKTAKDFYSGSNSWITGLEAGGHDFVETVIRYILSDSMPVMTKRFHEMPTRNITSLKENIRQMMLNMDKNVQLGAFQDALQNRTDITLELLTKSHRAQLEILVALKSGRSDFLLLDNSISSSHLAEIFMNMRCKNLSCRVLLPVDECDCRVCSRKDGFCSACMCLVCSNFDMASNTCSWVGCDVCLHWCHTDCGIKESYIRNGINASGAPGMTEMQFHCVACNHPSEMFGFVKEVFLNFAREWKFERFCKELEYVNKIFSSSKDSRGKQLRQAADAMLASLKSKLIGLPEACNRILGFISDCDSSTPAETSAPFIYEQPKPRHERGSPSQDTAWLRSVCSDNPHNQLKRSASVADAFHRERQVEICAVEMELERGSPKEPRFEELESIVRMKQAEAEMFQGRADDARREAEGLKRIAIAKKEKIEEEYNRRMGKLSMEDAQERRRRRYEELEAMQRGQREFYEMKMRMEEEMRGLLTKMEMTKQSLAL
B5: OBERON2 (OBE2) (protein, UniProt Q9LUB7 1-574)
chain: MGTSSGSNHPHQMLPPRQQQRSGGGLETALSLVSSDQEPRRESPAESASSQETWPLGDTVAGKKSMSQKTEPDSMEQTVNVMHHVSNADKVSVRDIARERVELVAERMHRLPDEFLDELKNGLKSILEGNVAQSVDEFMFLQKVVQSRTDLSSVTLVRAHRVQLEILVAINTGIQAFLHPNISLSQPSLIEIFVYKRCRNIACQNQLPADDCYCDICTNRKGFCNLCMCTICNKFDFSVNTCRWIGCDLCSHWTHTDCAIRDGQITTGSSAKNNTSGPGEIVFKCRACNRTSELLGWVKDVFQHCAPNWDRESLMKELDFVSRIFRGSEDQRGRKLFWKCEELIDKIKGGLAEATAAKLILMFFQEIESDSAKSFENGEGGRLMAPQDACNRIAEVVQETLRKMEIVAEEKMRMFKKARMALETCDRELEDKAKEVSELKAERQKKKLQIDELERIVRLKQAEADMFQLKANEAKREADRLQRIVLAKMDKSEEEYASNYLKQRLSEAEAEKQYLFEKIKLQENSRVASQSSGGGGDPSQVMMYSKIRDLLQGYNLSPKVDPQLNERNPFRSNP
B6: UBIQUITIN-SPECIFIC PROTEASE UBP12 (enzyme, UniProt Q9FPT1 1-1116)
chain: MTMMTPPPVDQPEDEEMLVPNSDLVDGPAQPMEVTQPETAASTVENQPAEDPPTLKFTWTIPNFSRQNTRKHYSDVFVVGGYKWRILIFPKGNNVDHLSMYLDVSDAASLPYGWSRYAQFSLAVVNQIHTRYTVRKETQHQFNARESDWGFTSFMPLSELYDPSRGYLVNDTVLVEAEVAVRKVLDYWSYDSKKETGFVGLKNQGATCYMNSLLQTLYHIPYFRKAVYHMPTTENDAPTASIPLALQSLFYKLQYNDTSVATKELTKSFGWDTYDSFMQHDVQELNRVLCEKLEDKMKGTVVEGTIQQLFEGHHMNYIECINVDFKSTRKESFYDLQLDVKGCKDVYASFDKYVEVERLEGDNKYHAEGHGLQDAKKGVLFIDFPPVLQLQLKRFEYDFMRDTMVKINDRYEFPLELDLDREDGKYLSPDADRSVRNLYTLHSVLVHSGGVHGGHYYAFIRPTLSDQWYKFDDERVTKEDLKRALEEQYGGEEELPQTNPGFNNNPPFKFTKYSNAYMLVYIRESDKDKIICNVDEKDIAEHLRVRLKKEQEEKEDKRRYKAQAHLYTIIKVARDEDLKEQIGKDIYFDLVDHDKVRSFRIQKQTPFQQFKEEVAKEFGVPVQLQRFWIWAKRQNHTYRPNRPLTPQEELQPVGQIREASNKANTAELKLFLEVEHLDLRPIPPPEKSKEDILLFFKLYDPEKAVLSYAGRLMVKSSSKPMDITGKLNEMVGFAPDEEIELFEEIKFEPCVMCEHLDKKTSFRLCQIEDGDIICFQKPLVNKEIECLYPAVPSFLEYVQNRQLVRFRALEKPKEDEFVLELSKQHTYDDVVEKVAEKLGLDDPSKLRLTSHNCYSQQPKPQPIKYRGVDHLSDMLVHYNQTSDILYYEVLDIPLPELQGLKTLKVAFHHATKEEVVIHNIRLPKQSTVGDVINELKTKVELSHPDAELRLLEVFYHKIYKIFPSTERIENINDQYWTLRAEEIPEEEKNIGPNDRLILVYHFAKETGQNQQVQNFGEPFFLVIHEGETLEEIKNRIQKKLHVSDEDFAKWKFAFMSMGRPEYLQDTDVVYNRFQRRDVYGAFEQYLGLEHADTTPKRAYAANQNRHAYEKPVKIYN

These molecules were tested against T1, GS-tagged TIFY8 (TIFY8-GS) (Arabidopsis thaliana) (assay: affinity purification with mass spectrometry; tandem affinity purification of TIFY8-GS (IgG-Sepharose, then streptavidin Sepharose) from Arabidopsis PSB-D cell culture extract; MALDI-TOF/TOF (mock) and LTQ Orbitrap (mock or 1 h 50 µM JA); background proteins of control purifications subtracted).

binding | Molecule
binds | NOVEL INTERACTOR OF JAZ (NINJA), endogenous (from UniProt Q9SV55 1-425)
binds | Clathrin, heavy chain (AT3G08530/AT3G11130) (from UniProt Q0WNJ6)
binds | PEAPOD2 (PPD2), endogenous (from UniProt Q8GY55 1-315)
binds | PROTEIN PHOSPHATASE2A PP2A-3 (AT2G42500) (from UniProt Q07100 1-313) (enzyme)

Target: T1, GS-tagged TIFY8 (TIFY8-GS) (Arabidopsis thaliana)
Assay: as above
Remark: another data set of the same source

binding | Molecule
binds | B1
binds | B2
binds | B3
binds | B4
binds | B5
binds | B6
